Reference: the supplement of paper PMC10849652
The list shows a part of the results.

Protein sequences, listed by entry. Tags and fused reporters are not part of them. Lines headed by an entry give the natural chain unless they say otherwise; changes in a name come on top.
UniProt Q9C0H9: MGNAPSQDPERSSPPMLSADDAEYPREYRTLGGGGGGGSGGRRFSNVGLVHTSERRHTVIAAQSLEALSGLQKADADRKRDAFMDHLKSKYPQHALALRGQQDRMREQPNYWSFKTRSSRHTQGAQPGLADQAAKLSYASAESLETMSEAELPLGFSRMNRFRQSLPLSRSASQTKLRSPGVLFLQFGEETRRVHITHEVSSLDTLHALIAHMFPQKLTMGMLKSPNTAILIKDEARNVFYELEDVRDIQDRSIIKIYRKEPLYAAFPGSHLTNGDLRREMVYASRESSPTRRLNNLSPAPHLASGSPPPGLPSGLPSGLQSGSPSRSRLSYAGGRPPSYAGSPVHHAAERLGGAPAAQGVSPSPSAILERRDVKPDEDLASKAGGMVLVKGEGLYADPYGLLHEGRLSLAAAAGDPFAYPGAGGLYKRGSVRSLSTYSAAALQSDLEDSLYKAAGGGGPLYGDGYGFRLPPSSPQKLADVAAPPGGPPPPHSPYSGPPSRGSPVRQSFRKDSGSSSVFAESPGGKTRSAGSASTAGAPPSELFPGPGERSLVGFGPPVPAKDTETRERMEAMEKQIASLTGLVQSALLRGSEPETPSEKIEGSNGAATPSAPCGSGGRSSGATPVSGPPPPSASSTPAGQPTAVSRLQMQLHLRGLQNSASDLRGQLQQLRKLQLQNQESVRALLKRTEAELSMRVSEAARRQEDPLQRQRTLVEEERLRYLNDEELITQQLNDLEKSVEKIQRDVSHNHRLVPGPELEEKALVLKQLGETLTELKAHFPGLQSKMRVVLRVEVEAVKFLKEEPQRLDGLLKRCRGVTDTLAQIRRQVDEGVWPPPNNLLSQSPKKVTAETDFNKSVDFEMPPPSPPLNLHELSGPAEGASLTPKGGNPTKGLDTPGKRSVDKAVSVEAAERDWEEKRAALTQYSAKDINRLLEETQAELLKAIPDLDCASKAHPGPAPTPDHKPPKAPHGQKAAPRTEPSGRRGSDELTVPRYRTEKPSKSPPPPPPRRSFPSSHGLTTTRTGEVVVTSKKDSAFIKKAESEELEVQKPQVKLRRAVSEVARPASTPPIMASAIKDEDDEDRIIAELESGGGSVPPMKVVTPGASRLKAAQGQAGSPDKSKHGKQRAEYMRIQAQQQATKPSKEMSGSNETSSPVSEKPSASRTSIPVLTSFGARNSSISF
UniProt O43278: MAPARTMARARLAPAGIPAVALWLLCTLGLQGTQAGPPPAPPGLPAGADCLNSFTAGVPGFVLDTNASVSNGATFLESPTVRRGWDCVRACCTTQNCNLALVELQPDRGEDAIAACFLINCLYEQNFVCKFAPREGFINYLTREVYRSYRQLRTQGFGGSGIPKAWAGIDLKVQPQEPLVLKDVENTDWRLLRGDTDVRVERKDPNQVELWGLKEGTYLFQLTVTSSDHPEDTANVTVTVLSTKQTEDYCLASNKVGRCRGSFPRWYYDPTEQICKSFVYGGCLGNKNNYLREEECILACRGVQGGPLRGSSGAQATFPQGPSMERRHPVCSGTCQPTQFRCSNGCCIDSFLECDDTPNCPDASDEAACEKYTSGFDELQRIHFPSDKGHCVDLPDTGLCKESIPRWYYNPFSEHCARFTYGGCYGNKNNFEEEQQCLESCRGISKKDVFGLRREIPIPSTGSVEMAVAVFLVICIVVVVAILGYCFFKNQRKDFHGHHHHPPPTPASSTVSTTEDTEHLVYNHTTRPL
UniProt Q96EA4: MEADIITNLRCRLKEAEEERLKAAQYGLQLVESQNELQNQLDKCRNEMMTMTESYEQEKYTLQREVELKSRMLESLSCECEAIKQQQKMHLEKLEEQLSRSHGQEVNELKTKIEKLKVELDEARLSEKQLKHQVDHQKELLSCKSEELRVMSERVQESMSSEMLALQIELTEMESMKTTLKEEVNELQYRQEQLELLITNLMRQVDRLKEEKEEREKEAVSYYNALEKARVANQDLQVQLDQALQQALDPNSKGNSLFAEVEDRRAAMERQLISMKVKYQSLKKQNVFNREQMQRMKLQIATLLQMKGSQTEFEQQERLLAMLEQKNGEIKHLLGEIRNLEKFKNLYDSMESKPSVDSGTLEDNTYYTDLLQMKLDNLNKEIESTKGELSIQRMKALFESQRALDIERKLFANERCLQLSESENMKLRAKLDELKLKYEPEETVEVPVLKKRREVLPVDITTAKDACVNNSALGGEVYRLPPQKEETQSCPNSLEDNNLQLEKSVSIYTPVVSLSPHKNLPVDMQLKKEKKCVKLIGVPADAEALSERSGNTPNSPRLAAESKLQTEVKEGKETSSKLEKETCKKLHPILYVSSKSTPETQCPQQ
UniProt Q8N5C6: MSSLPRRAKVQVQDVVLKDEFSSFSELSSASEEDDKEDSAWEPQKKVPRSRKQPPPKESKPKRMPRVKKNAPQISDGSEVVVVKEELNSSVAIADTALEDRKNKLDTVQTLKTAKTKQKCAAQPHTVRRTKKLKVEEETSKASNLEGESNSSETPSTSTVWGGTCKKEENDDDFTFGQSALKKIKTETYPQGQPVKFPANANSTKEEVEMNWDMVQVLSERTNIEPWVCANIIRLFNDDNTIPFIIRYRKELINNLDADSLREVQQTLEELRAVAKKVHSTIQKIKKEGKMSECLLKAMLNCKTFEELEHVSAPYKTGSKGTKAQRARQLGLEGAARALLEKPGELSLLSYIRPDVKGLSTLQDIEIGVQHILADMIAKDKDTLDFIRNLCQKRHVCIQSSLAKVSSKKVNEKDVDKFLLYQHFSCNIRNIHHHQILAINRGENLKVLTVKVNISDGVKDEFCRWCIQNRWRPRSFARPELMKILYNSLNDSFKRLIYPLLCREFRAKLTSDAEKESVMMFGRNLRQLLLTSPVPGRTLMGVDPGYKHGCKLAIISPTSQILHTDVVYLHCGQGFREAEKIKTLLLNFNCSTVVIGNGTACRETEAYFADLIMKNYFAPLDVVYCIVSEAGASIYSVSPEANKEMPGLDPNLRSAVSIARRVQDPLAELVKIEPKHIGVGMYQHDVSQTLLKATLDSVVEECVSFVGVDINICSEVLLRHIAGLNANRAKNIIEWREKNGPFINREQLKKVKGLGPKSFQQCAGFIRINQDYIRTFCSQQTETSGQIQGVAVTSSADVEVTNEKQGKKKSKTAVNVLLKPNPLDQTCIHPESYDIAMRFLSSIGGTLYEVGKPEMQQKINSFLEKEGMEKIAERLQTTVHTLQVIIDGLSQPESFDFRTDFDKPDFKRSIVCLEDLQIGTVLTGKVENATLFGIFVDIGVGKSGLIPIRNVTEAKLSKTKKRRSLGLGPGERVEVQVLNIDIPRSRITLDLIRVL
UniProt Q7Z698: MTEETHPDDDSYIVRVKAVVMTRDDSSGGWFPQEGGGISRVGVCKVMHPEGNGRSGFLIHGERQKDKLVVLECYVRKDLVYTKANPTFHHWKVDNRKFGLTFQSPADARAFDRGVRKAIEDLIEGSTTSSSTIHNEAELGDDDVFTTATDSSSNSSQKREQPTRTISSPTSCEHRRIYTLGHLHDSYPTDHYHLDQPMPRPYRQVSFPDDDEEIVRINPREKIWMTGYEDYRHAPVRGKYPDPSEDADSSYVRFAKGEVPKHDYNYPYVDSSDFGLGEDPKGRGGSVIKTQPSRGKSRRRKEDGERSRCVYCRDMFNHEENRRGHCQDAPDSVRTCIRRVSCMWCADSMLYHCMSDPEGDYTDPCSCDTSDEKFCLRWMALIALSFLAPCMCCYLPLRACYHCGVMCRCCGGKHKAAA
UniProt Q8N0Z3: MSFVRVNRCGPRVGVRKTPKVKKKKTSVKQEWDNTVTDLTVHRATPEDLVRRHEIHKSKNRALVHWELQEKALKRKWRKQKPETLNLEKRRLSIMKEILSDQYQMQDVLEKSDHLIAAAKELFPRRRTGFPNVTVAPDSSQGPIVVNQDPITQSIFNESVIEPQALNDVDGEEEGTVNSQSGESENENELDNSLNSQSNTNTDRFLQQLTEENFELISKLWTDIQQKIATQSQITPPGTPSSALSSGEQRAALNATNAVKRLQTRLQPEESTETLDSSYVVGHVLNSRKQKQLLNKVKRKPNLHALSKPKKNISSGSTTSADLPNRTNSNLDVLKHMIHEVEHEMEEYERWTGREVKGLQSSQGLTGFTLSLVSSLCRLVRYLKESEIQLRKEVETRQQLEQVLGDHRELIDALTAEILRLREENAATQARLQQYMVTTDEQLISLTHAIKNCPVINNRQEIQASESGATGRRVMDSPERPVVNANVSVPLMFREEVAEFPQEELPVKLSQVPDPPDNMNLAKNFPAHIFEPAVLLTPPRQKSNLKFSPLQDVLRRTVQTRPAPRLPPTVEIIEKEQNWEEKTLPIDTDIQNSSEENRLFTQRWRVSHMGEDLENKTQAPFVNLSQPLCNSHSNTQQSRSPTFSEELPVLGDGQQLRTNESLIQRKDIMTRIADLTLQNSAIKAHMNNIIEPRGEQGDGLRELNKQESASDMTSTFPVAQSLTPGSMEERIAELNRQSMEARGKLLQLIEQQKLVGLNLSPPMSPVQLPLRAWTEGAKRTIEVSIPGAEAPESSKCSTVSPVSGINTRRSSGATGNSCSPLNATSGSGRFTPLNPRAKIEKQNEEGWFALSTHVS
UniProt Q86XZ4: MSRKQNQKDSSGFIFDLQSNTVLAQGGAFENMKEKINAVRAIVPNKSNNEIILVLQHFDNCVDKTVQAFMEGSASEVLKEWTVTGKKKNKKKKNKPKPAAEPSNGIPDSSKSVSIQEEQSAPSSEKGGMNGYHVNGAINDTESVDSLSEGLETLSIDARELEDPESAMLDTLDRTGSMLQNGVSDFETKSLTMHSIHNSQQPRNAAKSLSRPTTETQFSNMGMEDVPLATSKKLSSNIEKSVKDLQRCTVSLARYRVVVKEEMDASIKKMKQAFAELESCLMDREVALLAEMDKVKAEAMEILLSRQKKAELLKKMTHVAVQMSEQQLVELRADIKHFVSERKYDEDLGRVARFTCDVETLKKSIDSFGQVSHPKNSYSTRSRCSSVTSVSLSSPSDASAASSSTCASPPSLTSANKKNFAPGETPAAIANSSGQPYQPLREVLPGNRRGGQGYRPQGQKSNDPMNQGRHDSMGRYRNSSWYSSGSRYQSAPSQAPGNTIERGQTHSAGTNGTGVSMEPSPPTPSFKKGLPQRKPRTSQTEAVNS
UniProt Q8TCT6: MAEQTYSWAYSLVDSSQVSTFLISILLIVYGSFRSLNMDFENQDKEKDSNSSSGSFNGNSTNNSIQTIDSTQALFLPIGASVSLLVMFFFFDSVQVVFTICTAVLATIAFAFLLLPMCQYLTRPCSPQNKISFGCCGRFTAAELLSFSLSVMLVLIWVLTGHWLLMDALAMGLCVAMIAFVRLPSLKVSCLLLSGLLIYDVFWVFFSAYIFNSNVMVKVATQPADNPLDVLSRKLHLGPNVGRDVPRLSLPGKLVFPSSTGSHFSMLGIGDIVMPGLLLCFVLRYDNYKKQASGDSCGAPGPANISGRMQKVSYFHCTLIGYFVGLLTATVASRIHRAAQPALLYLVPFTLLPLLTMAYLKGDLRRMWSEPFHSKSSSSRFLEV
UniProt Q7Z6B7: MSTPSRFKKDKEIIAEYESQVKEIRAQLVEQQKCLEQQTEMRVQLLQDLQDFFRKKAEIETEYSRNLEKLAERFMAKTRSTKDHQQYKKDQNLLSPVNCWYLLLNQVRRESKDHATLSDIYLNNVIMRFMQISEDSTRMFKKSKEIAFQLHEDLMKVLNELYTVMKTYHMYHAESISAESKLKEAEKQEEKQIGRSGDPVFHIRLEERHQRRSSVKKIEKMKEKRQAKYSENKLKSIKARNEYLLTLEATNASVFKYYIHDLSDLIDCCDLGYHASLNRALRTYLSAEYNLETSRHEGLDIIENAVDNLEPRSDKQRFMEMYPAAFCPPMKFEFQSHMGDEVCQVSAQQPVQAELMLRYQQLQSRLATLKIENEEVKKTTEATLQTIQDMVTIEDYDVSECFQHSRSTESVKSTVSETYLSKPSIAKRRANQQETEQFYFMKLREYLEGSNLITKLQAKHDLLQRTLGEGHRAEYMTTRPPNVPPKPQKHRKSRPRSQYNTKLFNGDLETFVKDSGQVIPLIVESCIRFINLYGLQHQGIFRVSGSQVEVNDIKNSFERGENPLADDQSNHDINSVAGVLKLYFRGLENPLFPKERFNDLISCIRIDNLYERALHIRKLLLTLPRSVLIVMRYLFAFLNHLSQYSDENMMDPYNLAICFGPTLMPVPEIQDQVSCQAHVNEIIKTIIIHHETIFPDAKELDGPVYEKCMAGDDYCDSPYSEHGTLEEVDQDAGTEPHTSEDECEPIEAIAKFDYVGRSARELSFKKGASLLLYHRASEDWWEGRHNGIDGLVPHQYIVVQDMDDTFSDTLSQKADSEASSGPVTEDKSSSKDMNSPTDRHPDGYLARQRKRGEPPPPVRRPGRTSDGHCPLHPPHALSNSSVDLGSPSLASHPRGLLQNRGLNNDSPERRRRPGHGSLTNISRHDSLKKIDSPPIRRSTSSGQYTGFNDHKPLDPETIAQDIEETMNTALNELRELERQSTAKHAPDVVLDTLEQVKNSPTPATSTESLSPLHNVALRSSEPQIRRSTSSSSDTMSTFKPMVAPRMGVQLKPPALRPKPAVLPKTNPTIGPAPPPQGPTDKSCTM

How the values were obtained:
Assay in all cases: log2 fold change, soluble protein after heating vs DMSO (PISA); higher = thermal stabilisation; K562 cells, 10 uM, 30 min; active = over 0.2 and 3.5 SD of the protein, either way, in both replicates (recomputed)
[1] = compound: O=C1NC(=O)C(c2cnc3ccccn23)=C1c1cn2c3c(cc(F)cc13)CN(C(=O)N1CCCCC1)CC2
Summary of the method: (§1)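 Aliquots of K562 cells (2×10^6 cells/mL) treated with 10 μM compound for 30 min were heated for 3 min over 48°C-58°C. After pooling and extraction in PBS with 0.5% NP-40 at 4°C, soluble protein from a 21,000xg, 90 min spin was quantified by TMTpro 16plex LC-MS/MS with channel sums equalised. Thermal stability is expressed against control samples, from duplicates, as a log2 fold change.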

[2] = compound: NC(=O)c1cnc(N[C@@H]2CCCC[C@@H]2N)nc1Nc1cccc(-n2nccn2)c1
Summary of the method: as §1

[3] = compound: NC1(c2ccc(-c3nc4ccn5c(=O)[nH]nc5c4cc3-c3ccccc3)cc2)CCC1
Summary of the method: as §1

[4] = compound: NCC(=O)Nc1ccc(-n2nc(C(F)(F)F)cc2-c2ccc3c(ccc4ccccc43)c2)cc1
Summary of the method: as §1

vorinostat = compound: O=C(CCCCCCC(=O)Nc1ccccc1)NO [vorinostat]
Summary of the method: as §1

citarinostat = compound: O=C(CCCCCCNC(=O)c1cnc(N(c2ccccc2)c2ccccc2Cl)nc1)NO [citarinostat]
Summary of the method: as §1

silmitasertib = compound: O=C(O)c1ccc2c(c1)nc(Nc1cccc(Cl)c1)c1ccncc12 [silmitasertib]
Summary of the method: as §1

[5] = compound: c1cc(OCCN2CCCCC2)cc(-c2n[nH]c3ccc(-c4nnc[nH]4)cc23)c1
Summary of the method: as §1

[6] = compound: NC(=O)Nc1cc(-c2cccc(F)c2)sc1C(=O)N[C@H]1CCCNC1
Summary of the method: as §1

entinostat = compound: Nc1ccccc1NC(=O)c1ccc(CNC(=O)OCc2cccnc2)cc1 [entinostat]
Summary of the method: as §1

Measured: log2 fold change

STK16 (UniProt O75716)
inactive: [1] -0.235

SPEN (UniProt Q96T58)
inactive: [2] 0.062 | [3] 0.005 | [4] 0.032 | vorinostat -0.032 | citarinostat 0.061 | silmitasertib -0.046 | [1] 0.033 | [5] 0.16

SRCIN1 (UniProt Q9C0H9)
inactive: [2] 0.019 | [4] -0.084 | vorinostat 0.226

SQOR (UniProt Q9Y6N5)
inactive: [6] -0.137 | [4] -0.008 | entinostat -0.096 | vorinostat -0.085 | [1] -0.034

ST3GAL1 (UniProt Q11201)
inactive: [1] -0.057

SPRR1B (UniProt P22528)
inactive: [3] 0.046 | citarinostat -0.369 | silmitasertib -0.099 | [5] 2.16

SPTY2D1 (UniProt Q68D10)
inactive: [1] 0.219

SREBF1 isoform 4 (UniProt P36956)
active: [3] -0.565
inactive: citarinostat 0.095 | silmitasertib 0.01 | [1] 0.057 | [5] 0.007

SPINT1 (UniProt O43278)
inactive: [6] -0.061 | [4] 0.18 | entinostat -0.243 | vorinostat 0.175 | [1] -0.269

SS18 (UniProt Q15532)
inactive: [2] 0.208 | [3] -0.04 | [4] 0.056 | vorinostat -0.274 | citarinostat 0.074 | silmitasertib 0.035 | [5] -0.084

SSX1 (UniProt Q16384)
inactive: [2] 0.047 | [1] 0.056

SPRR2B (UniProt P35325)
inactive: [3] 0.043 | [4] -0.204 | citarinostat -0.038 | silmitasertib 0.048 | [1] -0.153 | [5] 0.362

SPDL1 (UniProt Q96EA4)
inactive: [6] -0.165 | entinostat 0.543 | citarinostat 0.181 | [5] 0.027

SRBD1 (UniProt Q8N5C6)
inactive: vorinostat -0.156 | [1] -0.424

SPIRE2 (UniProt Q8WWL2)
inactive: [6] -0.096 | entinostat -0.044 | vorinostat 0.078 | citarinostat 0.018 | [1] 0.679 | [5] 0.659

SPTAN1 isoform 3 (UniProt Q13813)
inactive: [4] -0.014

STARD10 (UniProt Q9Y365)
inactive: [6] 0.126 | [4] -0.07 | entinostat 0.306 | citarinostat 0.027 | [1] -0.087 | [5] -0.099

SPRED2 (UniProt Q7Z698)
inactive: [2] 0.327

SPICE1 (UniProt Q8N0Z3)
inactive: vorinostat -0.561

SSH2 (UniProt Q76I76)
inactive: [6] -0.048 | entinostat -0.08

STIM2 isoform 2 (UniProt Q9P246)
inactive: [2] -0.128 | [4] 0.066 | citarinostat -0.029 | [1] 0.177 | [5] -0.028

STAB1 (UniProt Q9NY15)
inactive: [3] -0.197 | [4] -0.258 | vorinostat 0.068 | silmitasertib 0.288 | [1] -0.356

STIP1 (UniProt H0YGI8)
inactive: vorinostat 0.118

SSR2 (UniProt P43308)
inactive: [3] 0.578 | silmitasertib -0.177

SRCAP (UniProt Q6ZRS2)
inactive: [6] -0.079 | [3] 0.001 | [4] -0.041 | entinostat 0.077 | vorinostat -0.039 | citarinostat 0.014 | silmitasertib -0.022 | [5] 0.001

SPRED1 (UniProt Q7Z699)
inactive: [2] 0.005 | [4] -0.031 | [1] -0.016

SREBF2 (UniProt Q12772)
inactive: [6] -0.116 | [3] -0.031 | [4] -0.106 | entinostat -0.011 | citarinostat 0.05 | silmitasertib 0.009 | [1] -0.049 | [5] 0.012

SPATS2 (UniProt Q86XZ4)
inactive: [4] -0.061 | vorinostat -0.009 | citarinostat -0.002 | [5] -0.152

SPPL3 (UniProt Q8TCT6)
inactive: [3] -0.313 | silmitasertib -0.178

STAR (UniProt P49675)
inactive: [3] 0.019 | [4] 0.023 | silmitasertib -0.266

SRGAP1 (UniProt Q7Z6B7)
inactive: [3] 0.179 | [4] -0.176 | vorinostat -0.152 | silmitasertib -0.04 | [1] 0.039

SPIRE1 (UniProt Q08AE8)
inactive: [2] -0.025 | [3] 0.063 | [4] -0.04 | vorinostat -0.035 | citarinostat 0.022 | silmitasertib -0.008 | [1] 0.224 | [5] 0.023

SPHK2 isoform 5 (UniProt Q9NRA0)
inactive: [6] 0.139 | entinostat -0.183

Taken from the entries so far (7 entries):
SREBF2 (UniProt Q12772)
inactive: [6] -0.116 | [3] -0.031 | [4] -0.106 | entinostat -0.011 | citarinostat 0.05 | silmitasertib 0.009 | [1] -0.049 | [5] 0.012

SPATS2 (UniProt Q86XZ4)
inactive: [4] -0.061 | vorinostat -0.009 | citarinostat -0.002 | [5] -0.152

SPPL3 (UniProt Q8TCT6)
inactive: [3] -0.313 | silmitasertib -0.178

STAR (UniProt P49675)
inactive: [3] 0.019 | [4] 0.023 | silmitasertib -0.266

SRGAP1 (UniProt Q7Z6B7)
inactive: [3] 0.179 | [4] -0.176 | vorinostat -0.152 | silmitasertib -0.04 | [1] 0.039

SPIRE1 (UniProt Q08AE8)
inactive: [2] -0.025 | [3] 0.063 | [4] -0.04 | vorinostat -0.035 | citarinostat 0.022 | silmitasertib -0.008 | [1] 0.224 | [5] 0.023

SPHK2 isoform 5 (UniProt Q9NRA0)
inactive: [6] 0.139 | entinostat -0.183

The results go on:

STC2 (UniProt O76061)
inactive: [4] 0.613 | vorinostat 0.002

STK19 (UniProt P49842)
inactive: [2] 0.012

SSBP4 (UniProt U3KPY3)
inactive: [3] -0.014 | [4] 0.016 | silmitasertib 0.133

SRD5A3 (UniProt Q9H8P0)
inactive: [2] -0.081 | [3] -0.182 | vorinostat -0.024 | citarinostat 0.085 | silmitasertib -0.005 | [5] -0.145
